Assay [1] deals with T1, cLUC-OsATG5 (rice (Oryza sativa)) (UniProt Q6ZGL4).
T1 sequence: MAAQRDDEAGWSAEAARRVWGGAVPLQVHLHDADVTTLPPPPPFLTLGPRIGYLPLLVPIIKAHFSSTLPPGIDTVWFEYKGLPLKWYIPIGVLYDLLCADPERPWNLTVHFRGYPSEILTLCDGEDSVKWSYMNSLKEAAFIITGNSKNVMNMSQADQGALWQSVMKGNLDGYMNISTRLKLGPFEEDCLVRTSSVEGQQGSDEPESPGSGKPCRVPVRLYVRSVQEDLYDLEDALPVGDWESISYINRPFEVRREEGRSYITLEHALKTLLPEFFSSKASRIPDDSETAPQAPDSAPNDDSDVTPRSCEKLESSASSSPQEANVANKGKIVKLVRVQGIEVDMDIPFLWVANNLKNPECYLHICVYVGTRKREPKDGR
In words: split reporter; firefly luciferase complementation imaging (LCI) in agroinfiltrated N. benthamiana leaves; 1 mM luciferin at 72 hpi; cooled CCD imaging.

Amino acid sequences for entries named in this document (tags omitted). A change or cut given only in a name is not applied to a line headed by its entry.
UniProt P35683: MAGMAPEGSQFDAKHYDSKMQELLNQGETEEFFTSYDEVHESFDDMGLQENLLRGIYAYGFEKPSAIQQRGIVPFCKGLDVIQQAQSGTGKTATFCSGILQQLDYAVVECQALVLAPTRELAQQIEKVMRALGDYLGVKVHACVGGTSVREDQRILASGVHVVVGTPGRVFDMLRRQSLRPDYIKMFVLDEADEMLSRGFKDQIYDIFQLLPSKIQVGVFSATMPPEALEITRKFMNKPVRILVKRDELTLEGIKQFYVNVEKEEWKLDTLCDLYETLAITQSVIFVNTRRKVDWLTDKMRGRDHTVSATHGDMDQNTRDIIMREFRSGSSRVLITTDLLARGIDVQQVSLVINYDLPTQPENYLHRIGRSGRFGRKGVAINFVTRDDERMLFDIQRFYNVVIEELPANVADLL

Assay [2] concerns the target T2, OsATG5-nYFP (rice (Oryza sativa)) (UniProt Q6ZGL4).
T2 sequence: T1 sequence
In words: split reporter; BiFC (split YFP) in epidermal cells of N. benthamiana leaves, Agrobacterium infiltration at OD600 = 0.5, confocal microscopy 36–72 h after infiltration.

Results are given in words; binding and its absence hold for the method and conditions named. In cells and extracts the contact can be indirect. Binding can be weak; no strength is given. Sequences can lack the tags named with a protein.

With nLUC-OseIF4A (from UniProt P35683), the binding entry in assay [1] is “binds”. Consider cYFP-OseIF4A (from UniProt P35683), for which the binding result in assay [2] is “binds”.

Values taken from paper PMC8504976.
